No constants are given. Whether binding was seen depends on the method and setting. Some entries that bind do so weakly or less than the wild type.
Legend:
[1] = molecular target: T1, murine VISTA on mouse splenocytes (macrophages, neutrophils, CD4+ T cells) (mouse) (UniProt Q9D659); experiment: flow cytometry on mouse splenocytes, ΔMFI against isotype control, 3 mice
T1 sequence (looked up): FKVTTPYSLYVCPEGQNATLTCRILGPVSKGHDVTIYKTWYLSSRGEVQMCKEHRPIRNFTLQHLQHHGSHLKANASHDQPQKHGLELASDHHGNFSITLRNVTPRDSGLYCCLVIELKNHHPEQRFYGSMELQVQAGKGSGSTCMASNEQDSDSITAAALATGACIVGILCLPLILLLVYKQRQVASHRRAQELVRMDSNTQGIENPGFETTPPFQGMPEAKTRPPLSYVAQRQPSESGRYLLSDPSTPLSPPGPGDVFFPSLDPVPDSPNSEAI

[2] = molecular target: T2, human VISTA (hVISTA), as used in the hybridoma screening; form not stated (human) (UniProt Q9H7M9); experiment: ELISA screening of hybridomas
T2 sequence (looked up): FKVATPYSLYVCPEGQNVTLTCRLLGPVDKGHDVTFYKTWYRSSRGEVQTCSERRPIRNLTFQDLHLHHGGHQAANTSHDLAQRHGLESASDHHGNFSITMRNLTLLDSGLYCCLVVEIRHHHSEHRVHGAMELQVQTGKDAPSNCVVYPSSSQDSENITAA

[3] = molecular target: T3, murine VISTA (mVISTA), recombinant; form not stated (mouse) (UniProt Q9D659); experiment: ELISA screening of hybridomas
T3 sequence (looked up): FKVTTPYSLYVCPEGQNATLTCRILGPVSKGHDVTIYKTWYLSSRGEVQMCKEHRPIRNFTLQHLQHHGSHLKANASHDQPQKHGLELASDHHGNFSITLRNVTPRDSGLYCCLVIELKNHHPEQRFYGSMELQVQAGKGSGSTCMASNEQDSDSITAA

[4] = molecular target: T1, murine VISTA on mouse splenocytes (macrophages, neutrophils, CD4+ T cells) (mouse); experiment: flow cytometry on mouse splenocytes (FIG. 3B)

- binding [1]: binds
- binding [2]: binds
- binding [3]: binds
- binding [4]: binds
B1: rat anti-hmVISTA mAb 7C7 (antibody, V domains shown)
VH: EVQLVESGGGLVQPGRSLKLSCVASGFTFNKYWMSWTRQAPGKGLEWVASITNSGGNTYYPDSVKGRFTISRDNAQNTLYLQMNSLRSEDTATYYCTLGVDYWGQGAMVTVSS
VL: DVVMTQTPPSLSVTIGQSVSISCKSSQSLVYSDGKTYLHWLLQSSGRSPKRLIYQVSNLASGVPDRFSGTGSQKDFTLKISRVEAKDLGVYYCAQTTHFPYTFGAGTKLEMK

Reference: patent US20240293499A1
